{"source": "PubChem BioAssay AID504784 (Drosophila RNAi Screening Center, 2011)", "aim": "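Search for regulators of lipid droplet storage in oleate-fed fly cells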 (primary screen)", "system": "Drosophila Kc167 embryonic cells", "reagents": "long dsRNA against Drosophila genes, about 250 ng dsRNA per well", "timing": "4 days", "treatment": "cells fed 400 µM oleic acid bound to BSA", "measured": "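Microscope images give a droplet-to-nucleus area ratio, taken as log and converted to a screen-wide B-score; higher values mean greater lipid storage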", "reading the numbers": "droplet/nuclear area B-score: higher = more stored lipid (overstorage)", "note": "In all, the deposit lists about 17,000 reagents; shown is an unselected part of those that have a named target and a result. 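Each column is one replicate's B-score; the combined score over replicates was not deposited, so single values may mislead.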 Reagents against one gene are numbered here. A plus sign joins genes that one reagent is predicted to hit. Not all columns of the deposit are shown."}
{"gene": "Unc-115b + p24-2", "dsRNA no.": 1, "droplet/nuclear area B-score, replicate 1": -0.999}
{"gene": "Bsg (GeneID 318841)", "dsRNA no.": 1, "droplet/nuclear area B-score, replicate 1": -1.09}
{"gene": "Bsg (GeneID 318841)", "dsRNA no.": 2, "droplet/nuclear area B-score, replicate 1": -1.8}
{"gene": "promL (GeneID 38372)", "dsRNA no.": 1, "droplet/nuclear area B-score, replicate 1": 0.742}
{"gene": "CG31661 (GeneID 33330)", "dsRNA no.": 1, "droplet/nuclear area B-score, replicate 1": -0.815}
{"gene": "Gr23a (GeneID 33453)", "dsRNA no.": 1, "droplet/nuclear area B-score, replicate 1": -0.868}
{"gene": "CG13005 (GeneID 32670)", "dsRNA no.": 1, "droplet/nuclear area B-score, replicate 1": 0.839}
{"gene": "orb2 (GeneID 39018)", "dsRNA no.": 1, "droplet/nuclear area B-score, replicate 1": 1.08}
{"gene": "orb2 (GeneID 39018)", "dsRNA no.": 2, "droplet/nuclear area B-score, replicate 1": 1.71}
{"gene": "orb2 (GeneID 39018)", "dsRNA no.": 3, "droplet/nuclear area B-score, replicate 1": -0.0202}
{"gene": "amrt (GeneID 32342)", "dsRNA no.": 1, "droplet/nuclear area B-score, replicate 1": -0.226}
{"gene": "CG14760 (GeneID 35802)", "dsRNA no.": 1, "droplet/nuclear area B-score, replicate 1": -0.736}
{"gene": "CG2811 (GeneID 37988)", "dsRNA no.": 1, "droplet/nuclear area B-score, replicate 1": -0.326}
{"gene": "BtbVII (GeneID 38376)", "dsRNA no.": 1, "droplet/nuclear area B-score, replicate 1": 1.69}
{"gene": "BtbVII (GeneID 38376)", "dsRNA no.": 2, "droplet/nuclear area B-score, replicate 1": -0.479}
{"gene": "Nop17l (GeneID 35730)", "dsRNA no.": 1, "droplet/nuclear area B-score, replicate 1": -3.38}
{"gene": "CG10321 (GeneID 37464)", "dsRNA no.": 1, "droplet/nuclear area B-score, replicate 1": 1.25}
{"gene": "CG15200 (GeneID 32060)", "dsRNA no.": 1, "droplet/nuclear area B-score, replicate 1": -0.158}
{"gene": "Dh44-R1 (GeneID 36601)", "dsRNA no.": 1, "droplet/nuclear area B-score, replicate 1": -0.0318}
{"gene": "ppk20 (GeneID 43486)", "dsRNA no.": 1, "droplet/nuclear area B-score, replicate 1": -0.467}
{"gene": "COX6AL2 (GeneID 40066)", "dsRNA no.": 1, "droplet/nuclear area B-score, replicate 1": -0.657}
{"gene": "Vm26Aa (GeneID 33829)", "dsRNA no.": 1, "droplet/nuclear area B-score, replicate 1": 0.903}
{"gene": "CG34428 (GeneID 5740867)", "dsRNA no.": 1, "droplet/nuclear area B-score, replicate 1": -0.969}
{"gene": "stretch (retired record) (GeneID 46211)", "dsRNA no.": 1, "droplet/nuclear area B-score, replicate 1": 1.8}
{"gene": "stretch (retired record) (GeneID 46211)", "dsRNA no.": 2, "droplet/nuclear area B-score, replicate 1": 0.563}
{"gene": "stretch (retired record) (GeneID 46211)", "dsRNA no.": 3, "droplet/nuclear area B-score, replicate 1": 0.192}
{"gene": "stretch (retired record) (GeneID 46211)", "dsRNA no.": 4, "droplet/nuclear area B-score, replicate 1": -2.97}
{"gene": "stretch (retired record) (GeneID 46211)", "dsRNA no.": 5, "droplet/nuclear area B-score, replicate 1": -1.26}
{"gene": "stretch (retired record) (GeneID 46211)", "dsRNA no.": 6, "droplet/nuclear area B-score, replicate 1": -0.248}
{"gene": "sim (GeneID 41612)", "dsRNA no.": 1, "droplet/nuclear area B-score, replicate 1": 1.26}
{"gene": "kat80 (GeneID 32581)", "dsRNA no.": 1, "droplet/nuclear area B-score, replicate 1": -1.26}
{"gene": "kat80 (GeneID 32581)", "dsRNA no.": 2, "droplet/nuclear area B-score, replicate 1": 0.0728}
{"gene": "Septin1 (GeneID 33114)", "dsRNA no.": 1, "droplet/nuclear area B-score, replicate 1": 2.2}
{"gene": "Atg5 (GeneID 31666)", "dsRNA no.": 1, "droplet/nuclear area B-score, replicate 1": 0.0135}
{"gene": "CG11349 (GeneID 38552)", "dsRNA no.": 1, "droplet/nuclear area B-score, replicate 1": 0.464}
{"gene": "alpha-Est2 (GeneID 40908)", "dsRNA no.": 1, "droplet/nuclear area B-score, replicate 1": -0.0205}
{"gene": "Invadolysin (GeneID 49580)", "dsRNA no.": 1, "droplet/nuclear area B-score, replicate 1": 0.265}
{"gene": "CG1724 (GeneID 33097)", "dsRNA no.": 1, "droplet/nuclear area B-score, replicate 1": -0.247}
{"gene": "CG10939 (GeneID 44155)", "dsRNA no.": 1, "droplet/nuclear area B-score, replicate 1": -0.234}
{"gene": "CG10939 (GeneID 44155)", "dsRNA no.": 2, "droplet/nuclear area B-score, replicate 1": -1.23}
{"gene": "BEAF-32 + CG42254 (retired record)", "dsRNA no.": 1, "droplet/nuclear area B-score, replicate 1": 0.943}
{"gene": "CG10562 (GeneID 43066)", "dsRNA no.": 1, "droplet/nuclear area B-score, replicate 1": 0.194}
{"gene": "CG4892 (GeneID 34949)", "dsRNA no.": 1, "droplet/nuclear area B-score, replicate 1": -1.4}
{"gene": "CG14634 (GeneID 50366)", "dsRNA no.": 1, "droplet/nuclear area B-score, replicate 1": -0.39}
{"gene": "Sox102F (GeneID 43844)", "dsRNA no.": 1, "droplet/nuclear area B-score, replicate 1": -0.6}
{"gene": "CG13838 (GeneID 42719)", "dsRNA no.": 1, "droplet/nuclear area B-score, replicate 1": -0.281}
{"gene": "CG10802 (GeneID 31318)", "dsRNA no.": 1, "droplet/nuclear area B-score, replicate 1": -0.255}
{"gene": "CG15136 (GeneID 35033)", "dsRNA no.": 1, "droplet/nuclear area B-score, replicate 1": 0.234}
{"gene": "ave (GeneID 246638)", "dsRNA no.": 1, "droplet/nuclear area B-score, replicate 1": 1.96}
{"gene": "Hasp (GeneID 35238)", "dsRNA no.": 1, "droplet/nuclear area B-score, replicate 1": 0.614}
{"gene": "Lgr1 (GeneID 42133)", "dsRNA no.": 1, "droplet/nuclear area B-score, replicate 1": -0.49}

6 entries from above, set out differently:
gene | dsRNA no. | droplet/nuclear area B-score, replicate 1
CG14760 (GeneID 35802) | 1 | -0.736
CG2811 (GeneID 37988) | 1 | -0.326
BtbVII (GeneID 38376) | 1 | 1.69
BtbVII (GeneID 38376) | 2 | -0.479
Nop17l (GeneID 35730) | 1 | -3.38
CG10321 (GeneID 37464) | 1 | 1.25
